The other results are listed elsewhere or left out.
Legend:
Test in all cases: log2 fold change, soluble protein after heating vs DMSO (PISA); higher = thermal stabilisation; K562 lysate, 10 uM; active = over 0.2 and 3.5 SD of the protein, either way, in both replicates (recomputed)
[1] = compound: C1=CC=C(C=C1)[C@H](COC2=CC3=C(C=C2)NC(=O)N3)NC(=O)C4=CC=CN(C4=O)CC5=CC(=C(C=C5)F)F
How it was run: (§1)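 To prepare the extract, K562 pellets were dounce-homogenised in PBS pH 7.4 with 1 mM MgCl2, giving crude material at 1 mg/mL protein. This was treated with 10 μM compound for 30 min, then heated in aliquots for 3 min over 48°C-58°C before pooling and addition of NP-40 to 0.5% at 4°C. Centrifugation at 21,000xg for 90 min left soluble protein in the supernatant, which TMTpro 16plex LC-MS/MS quantified with equalised channel sums. Results are log-two fold changes in thermal stability compared with solvent controls, from duplicates.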

The chains behind the UniProt entries cited, without tags or fusion partners. Where a name states a change or a piece, a line headed by the entry shows the natural chain unless it says otherwise.
UniProt O43572: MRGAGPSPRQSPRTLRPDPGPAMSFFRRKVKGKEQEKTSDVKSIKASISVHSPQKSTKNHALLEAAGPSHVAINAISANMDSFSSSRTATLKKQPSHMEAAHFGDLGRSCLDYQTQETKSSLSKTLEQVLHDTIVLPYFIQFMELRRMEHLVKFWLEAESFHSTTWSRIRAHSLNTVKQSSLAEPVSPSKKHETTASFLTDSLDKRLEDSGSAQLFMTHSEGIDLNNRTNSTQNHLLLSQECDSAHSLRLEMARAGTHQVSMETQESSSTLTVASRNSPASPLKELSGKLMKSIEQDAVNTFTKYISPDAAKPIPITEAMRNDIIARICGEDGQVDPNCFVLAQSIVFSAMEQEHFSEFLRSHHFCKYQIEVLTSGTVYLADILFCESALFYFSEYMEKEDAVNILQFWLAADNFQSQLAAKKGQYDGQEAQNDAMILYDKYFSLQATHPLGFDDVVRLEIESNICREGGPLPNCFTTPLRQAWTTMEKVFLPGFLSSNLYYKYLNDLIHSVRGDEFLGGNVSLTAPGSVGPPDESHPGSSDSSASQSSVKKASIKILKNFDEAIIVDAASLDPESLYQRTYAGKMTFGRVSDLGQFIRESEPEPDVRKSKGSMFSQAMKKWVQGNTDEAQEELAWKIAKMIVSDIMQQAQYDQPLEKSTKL
UniProt Q3LIE5: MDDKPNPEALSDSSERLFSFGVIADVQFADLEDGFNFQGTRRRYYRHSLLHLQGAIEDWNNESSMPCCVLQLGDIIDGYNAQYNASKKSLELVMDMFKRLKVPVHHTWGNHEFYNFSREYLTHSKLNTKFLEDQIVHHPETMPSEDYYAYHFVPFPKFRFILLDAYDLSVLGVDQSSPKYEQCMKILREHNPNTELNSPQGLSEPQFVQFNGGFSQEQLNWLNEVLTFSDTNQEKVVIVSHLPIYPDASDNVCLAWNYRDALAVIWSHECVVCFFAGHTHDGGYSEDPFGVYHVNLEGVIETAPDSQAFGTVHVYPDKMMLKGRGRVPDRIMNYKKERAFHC
UniProt Q16186: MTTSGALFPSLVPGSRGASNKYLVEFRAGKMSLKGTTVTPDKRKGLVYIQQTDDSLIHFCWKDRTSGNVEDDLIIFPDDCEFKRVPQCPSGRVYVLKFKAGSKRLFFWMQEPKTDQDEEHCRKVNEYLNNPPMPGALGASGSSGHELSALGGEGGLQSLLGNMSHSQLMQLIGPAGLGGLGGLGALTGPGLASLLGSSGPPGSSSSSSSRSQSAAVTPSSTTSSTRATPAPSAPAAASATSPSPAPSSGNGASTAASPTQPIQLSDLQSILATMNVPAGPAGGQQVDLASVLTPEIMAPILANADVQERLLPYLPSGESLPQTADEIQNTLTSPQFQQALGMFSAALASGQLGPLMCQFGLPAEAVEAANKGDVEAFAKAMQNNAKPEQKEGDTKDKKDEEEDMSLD
UniProt P14621: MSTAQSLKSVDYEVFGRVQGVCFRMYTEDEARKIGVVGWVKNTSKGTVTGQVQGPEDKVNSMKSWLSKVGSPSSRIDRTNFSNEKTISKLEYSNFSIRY

[2] = compound: CC1=C(SC2=C1C(=N[C@H](C3=NN=C(N32)C)CC(=O)N)C4=CC=C(C=C4)Cl)C
How it was run: as §1

[3] = compound: Cc1sc2c(c1C)C(c1ccc(Cl)cc1)=N[C@@H](CC(=O)OC(C)(C)C)c1nnc(C)n1-2
How it was run: as §1

[4] = compound: CC1=C2C(=CC=C1)N=C(N(C2=O)C3=CC=CC=C3C)CN4C=NC5=C(N=CN=C54)N
How it was run: as §1

[5] = compound: c1ccc([C@@H]2C[C@H]2NC2CCNCC2)cc1
How it was run: as §1

Measured: log2 fold change

AKAP10 (UniProt O43572)
inactive: [1] -0.324 | [2] 0.117 | [3] -0.026

ADPRM (UniProt Q3LIE5)
inactive: [1] -0.091 | [2] -0.038 | [4] 0.087 | [5] -0.031

ADRM1 (UniProt Q16186)
inactive: [1] -0.005 | [2] 0.007 | [4] -0.001 | [3] -0.026 | [5] 0.016

ACYP2 (UniProt P14621)
inactive: [1] -0.061 | [2] -0.032 | [4] 0.011 | [5] 0.118

— the supplement of paper PMC10849652
